{"source": "paper PMC8000391", "binders": {"B1": {"name": "endogenous murine Grainyhead-like 3 (GRHL3) (protein, UniProt Q5FWH3 1-603)", "chain": "MSNELDFRSVRLLKNDPVSFQKFPYSNEDEAWKTYLENPLTAATKAMMRVNGDEESVAALSFLYDYYMGPKEKRILSSSTGGRNDQGKKFYHSMDYEPDLAPLESPTHLMKFLTENVSGSPDYTDQLKKNNLLGLEGVLPTPGKTNTVPPGPSKLEASSMDSYLLPASDIYDNGSLNSLFESIHGVPPTQRWQPDSTFKDDPQESLLFPDILKTSPDPPCPEDYPGLKSDFEYTLGSPKAIHIKAGESPMAYLNKGQFYPVTLRTPAGGKGLALSSSKVKSVVMVVFDNDKVPVEQLRFWRHWHSRQPTAKQRVIDVADCKENFNTVQHIEEVAYNALSFVWNVNEEAKVFIGVNCLSTDFSSQKGVKGVPLNLQIDTYDCGAGTERLVHRAVCQIKIFCDKGAERKMRDDERKQFRRKVKCPDSSNNAGIKGCLLSGFRGNETTYLRPETDLETQPVLFIPNLHFSSLQRPGGVVPSAGHSSSDRLPLKRTCSPFAEEFEPLPSKQAKEDDLQRVLLYVRRETEEVFDALMLKTPDLKGLRNAISEKYGLPEENICKVYKKCKRGILVNMDNNIIQHYSNHVAFLLDMGELDGKIQIILKEL"}}, "molecular_target": "T1, murine endothelial nitric oxide synthase (eNOS) (mouse (endogenous in murine mesenteric arteries)) (UniProt P70313)", "T1 sequence": "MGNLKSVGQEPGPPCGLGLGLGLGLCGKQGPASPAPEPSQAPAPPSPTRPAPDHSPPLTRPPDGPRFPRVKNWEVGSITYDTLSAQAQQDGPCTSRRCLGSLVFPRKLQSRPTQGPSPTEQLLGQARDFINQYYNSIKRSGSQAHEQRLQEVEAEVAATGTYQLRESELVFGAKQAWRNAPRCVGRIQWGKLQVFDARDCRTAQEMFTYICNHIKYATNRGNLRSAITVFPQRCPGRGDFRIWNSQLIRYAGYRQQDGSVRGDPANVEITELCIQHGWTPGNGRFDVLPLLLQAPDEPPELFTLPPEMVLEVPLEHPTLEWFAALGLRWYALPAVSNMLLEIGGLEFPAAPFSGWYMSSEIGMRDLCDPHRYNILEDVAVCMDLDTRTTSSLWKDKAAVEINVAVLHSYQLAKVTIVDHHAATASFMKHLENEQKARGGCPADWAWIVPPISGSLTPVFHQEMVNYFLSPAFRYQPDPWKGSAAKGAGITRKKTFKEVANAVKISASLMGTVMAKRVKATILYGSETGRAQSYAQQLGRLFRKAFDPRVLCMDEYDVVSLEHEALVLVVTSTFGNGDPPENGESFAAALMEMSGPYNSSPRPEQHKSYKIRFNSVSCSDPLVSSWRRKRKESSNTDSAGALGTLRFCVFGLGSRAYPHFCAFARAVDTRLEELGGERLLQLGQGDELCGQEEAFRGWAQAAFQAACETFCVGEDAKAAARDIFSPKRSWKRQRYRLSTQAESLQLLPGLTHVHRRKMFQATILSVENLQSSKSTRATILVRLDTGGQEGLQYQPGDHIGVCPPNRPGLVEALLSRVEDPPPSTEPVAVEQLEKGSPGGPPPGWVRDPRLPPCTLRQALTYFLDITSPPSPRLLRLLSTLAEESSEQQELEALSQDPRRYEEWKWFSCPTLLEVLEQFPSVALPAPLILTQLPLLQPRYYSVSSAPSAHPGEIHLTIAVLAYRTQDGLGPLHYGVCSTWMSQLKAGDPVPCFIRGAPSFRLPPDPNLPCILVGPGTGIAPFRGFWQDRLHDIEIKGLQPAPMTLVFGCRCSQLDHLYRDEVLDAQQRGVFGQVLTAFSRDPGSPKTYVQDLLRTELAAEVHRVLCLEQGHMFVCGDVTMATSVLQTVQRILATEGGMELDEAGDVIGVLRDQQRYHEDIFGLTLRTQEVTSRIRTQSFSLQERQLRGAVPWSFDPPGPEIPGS", "assay": "proximity ligation; DuoLink In Situ kit on en face murine mesenteric arteries pinned on SYLGARD blocks; primary antibodies against GRHL3 and eNOS", "note": "These are yes or no findings as the source states them, for the method shown. In cells and extracts the contact can be indirect. Some binding calls cover weakened binding; strength is not graded here."}
{"binder": "B1", "values": [{"measurement": "binding", "result": "binds"}]}
